No constants are given. Whether binding was seen depends on the method and setting. In cells and extracts the contact can be indirect. These calls come from enrichment with a bait or labelling near it, and not all partners need be listed.
Biological target: 2×Flag-3×HA-c-Myc (UniProt P01106)
Test: affinity purification with mass spectrometry; HT29 cells expressing pCDNA3-2×Flag-3×HA-c-Myc (empty vector as control), RIPA lysate; anti-Flag agarose 4°C overnight, Flag peptide elution, then anti-HA agarose 4°C overnight; SDS-PAGE, silver staining, bands digested with trypsin and identified by mass spectrometry

Chains of the proteins cited; added tags and fusions are not shown.
UniProt P01106: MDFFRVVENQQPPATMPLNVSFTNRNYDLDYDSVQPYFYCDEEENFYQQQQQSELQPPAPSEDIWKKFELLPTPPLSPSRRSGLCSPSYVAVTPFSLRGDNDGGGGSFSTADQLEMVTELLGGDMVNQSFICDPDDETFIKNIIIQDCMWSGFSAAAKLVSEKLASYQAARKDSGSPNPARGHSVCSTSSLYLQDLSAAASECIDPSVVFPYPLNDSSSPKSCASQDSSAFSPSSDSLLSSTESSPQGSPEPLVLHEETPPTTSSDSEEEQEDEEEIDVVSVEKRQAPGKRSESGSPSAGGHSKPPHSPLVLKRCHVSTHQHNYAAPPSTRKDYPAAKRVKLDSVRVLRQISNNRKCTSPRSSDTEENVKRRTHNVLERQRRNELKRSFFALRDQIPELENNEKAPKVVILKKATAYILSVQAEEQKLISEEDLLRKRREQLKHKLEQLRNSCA
UniProt Q09472: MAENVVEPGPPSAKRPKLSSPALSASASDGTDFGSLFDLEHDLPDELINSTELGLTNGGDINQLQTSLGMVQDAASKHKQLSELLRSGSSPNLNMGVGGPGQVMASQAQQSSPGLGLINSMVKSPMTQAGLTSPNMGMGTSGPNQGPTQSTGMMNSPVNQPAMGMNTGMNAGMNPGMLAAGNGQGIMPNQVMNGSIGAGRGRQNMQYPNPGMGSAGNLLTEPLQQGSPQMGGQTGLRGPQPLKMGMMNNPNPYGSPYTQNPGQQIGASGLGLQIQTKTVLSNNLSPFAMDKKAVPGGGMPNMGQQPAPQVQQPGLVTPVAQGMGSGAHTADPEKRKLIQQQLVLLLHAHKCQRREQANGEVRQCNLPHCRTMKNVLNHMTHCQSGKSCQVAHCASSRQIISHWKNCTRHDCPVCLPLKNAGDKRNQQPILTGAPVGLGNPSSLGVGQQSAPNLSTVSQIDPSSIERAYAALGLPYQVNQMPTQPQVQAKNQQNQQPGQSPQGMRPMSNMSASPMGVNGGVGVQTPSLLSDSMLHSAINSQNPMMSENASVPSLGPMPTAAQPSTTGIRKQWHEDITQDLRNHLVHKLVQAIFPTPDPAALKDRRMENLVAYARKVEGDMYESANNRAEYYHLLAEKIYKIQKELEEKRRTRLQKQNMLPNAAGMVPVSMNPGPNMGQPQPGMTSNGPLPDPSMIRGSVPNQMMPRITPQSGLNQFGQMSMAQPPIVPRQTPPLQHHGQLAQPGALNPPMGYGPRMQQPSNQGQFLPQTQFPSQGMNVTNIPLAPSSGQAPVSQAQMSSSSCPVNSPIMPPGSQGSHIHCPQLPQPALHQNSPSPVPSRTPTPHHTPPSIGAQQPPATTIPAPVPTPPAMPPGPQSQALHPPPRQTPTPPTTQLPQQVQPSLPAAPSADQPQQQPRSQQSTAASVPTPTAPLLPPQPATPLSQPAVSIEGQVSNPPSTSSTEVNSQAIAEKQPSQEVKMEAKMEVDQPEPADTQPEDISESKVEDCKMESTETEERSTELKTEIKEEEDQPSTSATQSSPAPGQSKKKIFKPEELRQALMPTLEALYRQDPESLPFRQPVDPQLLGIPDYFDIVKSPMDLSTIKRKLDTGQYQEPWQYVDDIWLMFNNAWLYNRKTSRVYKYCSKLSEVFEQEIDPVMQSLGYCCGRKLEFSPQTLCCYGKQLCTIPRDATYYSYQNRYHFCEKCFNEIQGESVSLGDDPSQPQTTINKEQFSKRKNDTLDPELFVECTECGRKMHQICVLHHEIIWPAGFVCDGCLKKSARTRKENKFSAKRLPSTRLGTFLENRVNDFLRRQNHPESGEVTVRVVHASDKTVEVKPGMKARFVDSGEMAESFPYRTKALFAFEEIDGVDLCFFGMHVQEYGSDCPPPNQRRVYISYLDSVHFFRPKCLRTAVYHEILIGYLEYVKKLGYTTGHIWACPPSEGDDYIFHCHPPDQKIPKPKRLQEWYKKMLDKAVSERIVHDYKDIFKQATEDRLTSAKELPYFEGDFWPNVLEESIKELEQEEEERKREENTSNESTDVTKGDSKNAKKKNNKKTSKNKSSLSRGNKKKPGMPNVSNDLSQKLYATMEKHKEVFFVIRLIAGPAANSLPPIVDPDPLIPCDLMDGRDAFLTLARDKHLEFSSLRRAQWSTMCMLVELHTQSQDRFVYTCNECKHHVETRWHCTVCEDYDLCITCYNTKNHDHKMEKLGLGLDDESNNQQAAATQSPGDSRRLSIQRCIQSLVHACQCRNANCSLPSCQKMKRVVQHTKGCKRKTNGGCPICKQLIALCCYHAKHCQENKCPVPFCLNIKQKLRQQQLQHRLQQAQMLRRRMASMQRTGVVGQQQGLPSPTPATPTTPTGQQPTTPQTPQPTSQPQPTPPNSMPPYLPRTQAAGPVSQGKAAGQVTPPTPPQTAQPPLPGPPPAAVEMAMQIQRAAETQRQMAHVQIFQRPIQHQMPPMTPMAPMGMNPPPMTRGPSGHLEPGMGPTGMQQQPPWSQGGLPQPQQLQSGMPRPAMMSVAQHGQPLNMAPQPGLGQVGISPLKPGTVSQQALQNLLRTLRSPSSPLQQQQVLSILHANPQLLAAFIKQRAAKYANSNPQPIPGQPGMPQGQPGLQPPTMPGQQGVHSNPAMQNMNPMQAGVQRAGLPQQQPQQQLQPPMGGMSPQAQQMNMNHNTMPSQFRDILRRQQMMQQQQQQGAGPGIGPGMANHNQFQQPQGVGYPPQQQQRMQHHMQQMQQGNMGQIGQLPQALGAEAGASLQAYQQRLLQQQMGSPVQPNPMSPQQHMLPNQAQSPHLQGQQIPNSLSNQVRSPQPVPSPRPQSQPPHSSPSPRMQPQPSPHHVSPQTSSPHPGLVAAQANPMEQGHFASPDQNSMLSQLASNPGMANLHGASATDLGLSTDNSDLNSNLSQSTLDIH

## p300 (from UniProt Q09472 1-2414)
  binding: binds
